Record: PubChem BioAssay AID1259405 (NCATS, 2018)
The whole screen tested about 50,000 reagents; this is an unselected part. In the full data, about 4,000 (8%) are marked active. 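Mouse siRNA library applied to hamster cells; one well for each siRNA.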 Entries without a mark were called inactive. The numbers tell different reagents against one gene apart.

Test: 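Silenced genes that increase secreted GFP made by CHO cells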 (primary screen)
Cell system: Chinese hamster CHO-K1 ovary cells with stable secreted eGFP expression
Reagent: single siRNA against mouse genes, 0.8 pmol siRNA per well (2 µl of 400 nM stock)
Timing: 3 days
Measured: 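Percent of the per-plate non-targeting control median for intracellular GFP per well by laser scanning cytometry and for cell viability by ATP luminescence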
Direction: GFP, % of control: higher = more GFP per well, higher productivity; viability (ATP), % of control: higher = more viable cells (more ATP)
Call rule: 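Called active when intracellular GFP, relative to negative control, is at or above 120%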

The first 7 entries, to show the layout:
target	reagent no.	GFP, % of control	viability (ATP), % of control
Zfp41	1	84.4	71.5
Zfp41	2	71.1	82.9
Zfp41	3	105	103
Tgoln2	1	81.3	63.5
Tgoln2	2	120 (active)	84.8
Tgoln2	3	77.8	63.4
Higd2a	1	82.2	85.2

Main list, from the first entry:
target	reagent no.	GFP, % of control	viability (ATP), % of control
Zfp41	1	84.4	71.5
Zfp41	2	71.1	82.9
Zfp41	3	105	103
Tgoln2	1	81.3	63.5
Tgoln2	2	120 (active)	84.8
Tgoln2	3	77.8	63.4
Higd2a	1	82.2	85.2
Higd2a	2	109	75.7
Higd2a	3	51.8	60
Ube3a	1	78.4	61.1
Ube3a	2	29.7	17.1
Ube3a	3	66.7	71.2
Capsl	1	107	86.7
Capsl	2	68.7	45.8
Capsl	3	49.7	64.1
Kir3dl1	1	62	46.3
Kir3dl1	2	112	39.4
Kir3dl1	3	123 (active)	55.4
Klhl18	1	47.8	51.4
Klhl18	2	58.1	60.5
Klhl18	3	118	91.6
Nr1i3	1	34.3	40
Nr1i3	2	143 (active)	94
Rps3	1	60.5	84.9
Rps3	2	21.9	16.4
Rps3	3	118	61.6
Sim2	1	109	116
Sim2	2	73.3	82.5
Sim2	3	79.6	94.8
Cdh13	1	78	88.4
Cdh13	2	87.5	81.3
Cdh13	3	55.7	55.8
Tas2r114	1	58.4	67.8
Tas2r114	2	76.7	81.2
Tas2r114	3	80.9	92.1
Lage3	1	82.6	90.2
Lage3	2	38.8	44.6
Lage3	3	152 (active)	107
Qki	1	93.3	72.1
Qki	2	69.4	66.6
Or7d10	1	118	74.6
Or7d10	2	65	57.2
Or7d10	3	89.1	117
Lingo4	1	102	66.2
Lingo4	2	106	86
Lingo4	3	65.7	93.4
Snx11	1	98.5	131
Snx11	2	80.4	74.1
Uhrf1	1	55.7	88.3
Uhrf1	2	62.8	95
Uhrf1	3	64.8	93.9
Or5m5	1	71.7	41
Or5m5	2	101	102
Or5m5	3	83.1	69.1
Or1x2	1	54.1	50
Or1x2	2	89	82.4
Or1x2	3	105	130
